Experimental data taken from patent publication US10233146B2, “Acetylenic cyanoenones as therapeutics for inflammation and carcinogenesis” (THE RESEARCH FOUNDATION FOR THE STATE UNIVERSITY OF NEW YORK, priority 2015, dated 2019).
Some of these results come from one statement about several compounds together. Some compounds share one range, which may span the group rather than tell each member.

Test: UV study of Michael adduct formation with DTT
Assay type: physicochemical
Details: for local maximum absorptions of adducts with DTT: DTT (1 and 10 equiv), 0.1 mM compound, pH 7.4 phosphate buffered saline-1% ethanol; for approximate equilibrium constant K of Michael reaction with DTT: each initial concentration 0.1 mM
Description: Calculation of Approximate Equilibrium Constant (K)
The concentrations of 3, with initial concentration of 0.1 mM, and DTT, with initial concentration of 0.1 mM, in the phosphate buffer are calculated to be 0.0855 mM as follows: (1) The absorbance (A) is 0.956 at 0.1 mM concentration of 3 in deionized water. (2) The A of 3 is 0.817 in the phosphate buffer. (3) The concentrations of 3 and DTT in the buffer are calculated to be 0.0855 mM based on (1) and (2). From these concentrations, the approximate K is calculated as follows: K=[Adduct]/[3]×[DTT]=0.0145×10^−3/[…]=2.0×10^3 (Liters/mol).
Unfortunately, since the λmax of 4-8 was not observed due to the overlapping, we can't calculate the concentrations of the adducts of 4-8 by the same method as for 3. However, since we can speculate that the ε of the adducts of 4-8 is almost similar to that of the adduct of 2, we can calculate the concentrations of the adducts of 4-8 based on the A (0.227 at 0.0145 mM) of the adduct of […] and the A of the adducts of 4-8. For example, the concentration of the adduct of 5 is 0.0145×0.369 (A of the adduct of 5)/0.227=0.0235 (mM). Therefore, the concentrations of 5 and DTT are 0.0765 (mM/each). Thus, K of 5=0.0235×10^−3/0.0765×0.0765×10^−6=4.0×10^3 (Liters/mol). The K of 4 and 6-8 are also calculated using the A (0.227 at 0.0145 mM) of the adduct of 3 and the A of the adducts of 4 and 6-8, respectively.
Chemical reactivity of monocyclic, bicyclic, and tricyclic compounds 4-15 as Michael acceptors was evaluated using UV spectroscopy.
Michael reaction between ethynylcyanodienones with DTT give adducts IV (Scheme 11). Since adducts IV have different UV absorption spectra (λmax 330-380 nm) from those of the corresponding ethynylcyanodienones (λmax 230-320 nm), UV spectroscopy can clarify whether or not the Michael adducts are produced.^6
1. UV Studies on Monocyclic and Bicyclic Compounds 4-9 with DTT Compounds 5-8 with DTT gave similar UV spectra to those of 3 (Taylor, S. K. et al. 1988). Compounds 5-8 have local maximum absorptions at 332-338 nm upon the addition of DTT (1 and 10 equiv) under dilute (0.1 mM of the compounds) and neutral aqueous conditions (pH 7.4 phosphate buffered saline-1% ethanol containing 1 mM KH2PO4, 5.6 mM Na2HPO4, and 154 mM NaCl) (Table 1 and FIG. 2). Also, these compounds react with a chloride anion (a much weaker nucleophile than a sulfhydryl group of DTT), which is contained in the buffer solution, to give Michael adducts whose local maximum absorptions are observed at 320-326 nm.
We have calculated approximate equilibrium constants (K) of these Michael reactions in the solutions of 5-8 with DTT (each initial concentration, 0.1 mM. See the calculation of the equilibrium constants in the Supporting Information). The values of K are approximately 1.0-4.2×10^3 (L/mol), implying that these additions are very strongly favored.
Tricyclic compounds 10-15 react with DTT to give the adducts whose local maximum absorptions are observed at 374-383 nm range (Table 1 and FIG. 2). […] Among phenanthrene derivatives, substitutents at C5 decrease the reactivity.

Row | SMILES | local maximum absorptions of adducts with DTT | approximate equilibrium constant K of Michael reaction with DTT
1 | C#CC1(C=C)C=CC(=O)C(C#N)=C1 (centres unmarked) [Compound 5, 3-Ethynyl-6-oxo-3-vinylcyclohexa-1,4-dienecarbonitrile] | 332-338 nm | 1.0-4.2×10^3 L/mol
2 | C#CC1(CC)C=CC(=O)C(C#N)=C1 (centres unmarked) [Compound 6, 3-Ethyl-3-ethynyl-6-oxocyclohexa-1,4-dienecarbonitrile] | 332-338 nm | 1.0-4.2×10^3 L/mol
3 | C#CC12C=C(C#N)C(=O)C=C1CCC2 (centres unmarked) [Compound 7, 3a-Ethynyl-6-oxo-2,3,3a,6-tetrahydro-1H-indene-5-carbonitrile] | 332-338 nm | 1.0-4.2×10^3 L/mol
4 | C#CC12C=C(C#N)C(=O)C=C1C(C)(C)CC2 (centres unmarked) [Compound 8, 3a-Ethynyl-1,1-dimethyl-6-oxo-2,3,3a,6-tetrahydro-1H-indene-5-carbonitrile] | 332-338 nm | 1.0-4.2×10^3 L/mol
